The other results are listed elsewhere or left out. These are further read-outs of the screen, such as a control signal, another cell line or another target. No call is given for them. Compounds called inactive in the main read-out are mostly missing here. The note in brackets gives the kind of curve behind each potency; many fits are weak.
Experiment: qHTS Assay for Lipid Storage Modulators in Drosophila S3 Cells;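 on cell number change: cells counted by Cell Tracker Red CMTPX staining in the red channel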
Conditions: BODIPY lipid droplet fluorescence, 18-24 h; for cell number change: measured here: cell count max response, cells fed with added oleic acid
Procedure, shortened: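 Drosophila S3 cells loaded with oleic acid (400 uM, as added) and compounds at several concentrations; lipid droplets imaged by 488-nm laser-scanning cytometry, 500–530 nm intensity and object ratio to cell channel. Percent activity normalized to 20 uM Triacsin C.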

[1] = measured here: lipid fluorescence (Fed channel) AC50, cells fed with added oleic acid
[2] = measured here: cell number channel AC50, cells fed with added oleic acid

| SMILES | cell number change [%] | AC50 [1] | AC50 [2] |
| --- | --- | --- | --- |
| CC(C)CN1CCN(Cc2cccn2-c2cccnc2)CC1CCO (configuration not stated) | 14.8 | 29.1 µM [rising, single point] |  |
| CSc1ccc(NC(=O)NCc2cccnc2)cc1 | -4.17 | 0.103 µM [falling, full curve, poor fit] |  |
| COc1cc([N+](=O)[O-])ccc1NC(=O)NNC(=O)CCc1ccccc1 | 7.43 |  |  |
| CN(C1CCCCC1)S(=O)(=O)c1ccc(S(=O)(=O)N2CCN(C(=O)c3ccccc3F)CC2)cc1 |  | 6.51 µM [rising, single point] | 6.51 µM [rising, single point] |
| CC(C)c1ccccc1NC(=O)COC(=O)c1ccc(Cl)c(S(=O)(=O)N2CCCCCC2)c1 | -8.95 | 14.6 µM [falling, partial curve, poor fit] |  |
| CC1CC(C)CN(c2oc(-c3ccccc3Cl)nc2C#N)C1 (configuration not stated) | 10.5 | 6.51 µM [rising, single point] |  |
| CCOC(=O)[C@@H]1[C@H]2COc3ccccc3[C@H]2N2C(=O)N(c3cccc(Cl)c3)C(=O)[C@@]12C | -4.85 | 0.146 µM [falling, full curve, poor fit] |  |
| CCOc1ccc(N(CC(=O)Nc2ccccc2C)S(=O)(=O)c2c(C)noc2C)cc1 |  | 1.84 µM [rising, partial curve, poor fit] |  |
| O=C(COc1cc2oc(=O)c3c(c2cc1Cl)CCCC3)NCC1CCC(C(=O)O)CC1 (configuration not stated) | -23.3 | 6.51 µM [rising, single point] |  |
| O=C(COC(=O)Cc1ccsc1)NCC12CC3CC(CC(C3)C1)C2 | -121 | 2.31 µM [rising, partial curve] | 29.1 µM [falling, single point] |
| CSCC[C@H](NC(=O)Cc1c(C)c2c(cc(C)c3c(C)c(C)oc32)oc1=O)C(=O)O | 27 |  | 3.66 µM [rising, single point] |
| COc1ccc(-c2c(-c3cc(OC)cc(OC)c3)n(C)c3ccc(-c4cccc5[nH]ccc45)cc23)cc1 | -3.3 | 0.0116 µM [falling, full curve, poor fit] |  |
| Cc1nc2nc(NC(=O)c3ccco3)[nH]n2c(=O)c1C | -2.65 |  |  |
| NC(=O)CSc1nnc(-c2cnccn2)n1Cc1ccco1 | 18.5 | 6.51 µM [falling, single point] |  |
| Cc1ccc(Cn2c(=N)c(C(=O)NCC3CCCO3)cc3c(=O)n4cccc(C)c4nc32)cc1 (configuration not stated) | -1.49 |  |  |
| Nc1ccc(C(=O)N/N=C2\CCCc3c2[nH]c2ccccc32)cc1 | -11.5 | 0.731 µM [falling, full curve, poor fit] |  |
| NS(=O)(=O)c1cc2c(cc1Cl)NC(C1CC3C=CC1C3)NS2(=O)=O (configuration not stated) |  | 3.26 µM [falling, full curve] |  |
| CCc1ccc(S(=O)(=O)Nc2c(NC3CCCCC3)c3ccccc3oc2=O)cc1 | -20.4 |  |  |
| CN(C(=O)CC1C(=O)NCCN1Cc1cccc(F)c1F)C1CCOCC1 (configuration not stated) | 26.1 | 6.51 µM [rising, partial curve, poor fit] |  |
| CCC(Oc1ccccc1)C(=O)Nc1ccccc1C(=O)N1CCOCC1 (configuration not stated) | 1.05 | 0.13 µM [rising, full curve, poor fit] |  |
| CCCCOc1ccc(NC(=O)CN2CCN(Cc3ccccc3)CC2)cc1 | -3.31 |  |  |

Arranged by molecular weight (high to low): five of the compounds above.

| SMILES | cell number change [%] | AC50 [1] | AC50 [2] |
| --- | --- | --- | --- |
| CN(C1CCCCC1)S(=O)(=O)c1ccc(S(=O)(=O)N2CCN(C(=O)c3ccccc3F)CC2)cc1 |  | 6.51 µM [rising, single point] | 6.51 µM [rising, single point] |
| COc1ccc(-c2c(-c3cc(OC)cc(OC)c3)n(C)c3ccc(-c4cccc5[nH]ccc45)cc23)cc1 | -3.3 | 0.0116 µM [falling, full curve, poor fit] |  |
| CSCC[C@H](NC(=O)Cc1c(C)c2c(cc(C)c3c(C)c(C)oc32)oc1=O)C(=O)O | 27 |  | 3.66 µM [rising, single point] |
| O=C(COC(=O)Cc1ccsc1)NCC12CC3CC(CC(C3)C1)C2 | -121 | 2.31 µM [rising, partial curve] | 29.1 µM [falling, single point] |
| CC1CC(C)CN(c2oc(-c3ccccc3Cl)nc2C#N)C1 (configuration not stated) | 10.5 | 6.51 µM [rising, single point] |  |

Continued:

| SMILES | cell number change [%] | AC50 [1] | AC50 [2] |
| --- | --- | --- | --- |
| COc1ccc(F)cc1CN1CCN(C(=O)CCC(=O)Nc2nnc(CC(C)C)s2)CC1 | -16.1 | 0.58 µM [falling, single point] |  |
| COc1ccc(-c2cc(C(=O)Nc3ccc(C)c(N)c3)c3ccccc3n2)cc1 | 0.338 | 2.31 µM [rising, partial curve] | 0.58 µM [rising, full curve, poor fit] |
| Cc1cc(=O)oc(C)c1C(=O)NCCN(C)Cc1ccccc1 |  | 6.51 µM [falling, single point] |  |
| FC(F)Oc1ccc(NC(=S)NN2CCOCC2)cc1 | 17.3 | 29.1 µM [falling, single point] |  |
| Cc1nc2c(cc1NC(=O)C(C)(C)C)nc(C)n2Cc1ccccc1 | 21.1 |  |  |
| Cc1cc(C)c(C#N)c(N2CCN(CCOc3ccc(Cl)cc3)CC2)n1 | -13 | 0.651 µM [rising, single point] |  |
| c1ccc(-c2cc(-c3nnc4n3N=C(c3ccc5ccccc5c3)CS4)[nH]n2)cc1 | -139 | 29.1 µM [falling, single point] | 29.1 µM [falling, single point] |
| Cc1ccc(C)c(-n2nnnc2SCC(=O)Nc2c(C)n(C)n(-c3ccccc3)c2=O)c1 |  |  | 3.26 µM [rising, partial curve] |
| COc1ccc(/C=N/NC(=O)c2cc(-c3ccccc3OC(C)C)nc3ccccc23)cc1CN1CCOCC1 |  | 0.00461 µM [rising, full curve, poor fit] |  |
| O=C(Nc1cccc(F)c1)C1CCN(C(=O)N2CCOc3ccccc32)CC1 | 1.73 |  |  |
| O=C(CNS(=O)(=O)c1ccc2ccccc2c1)OCC(=O)c1ccc(Br)s1 | 33.8 |  |  |
| Cc1ccc(CNC(=O)C2CCC(=O)N(Cc3ccc(Cl)cc3)C2)cc1F (configuration not stated) | -11.3 |  |  |
| CCCc1cc(=O)oc2cc(OCC(=O)Nc3ccccn3)ccc12 |  | 1.16 µM [falling, full curve] |  |
| O=C(NCCO)C(c1ccccc1)c1ccccc1 | -7.41 | 0.116 µM [falling, full curve, poor fit] |  |
| CC(=O)c1c(C)cc(C)c(CSc2ccccn2)c1C | 1.38 |  |  |
| O=C(COc1ccc(Cl)cc1Cl)NCCSc1ccc(Cl)cc1 | -15.8 | 18.4 µM [rising, partial curve] |  |
| O=C(Nc1nccs1)c1ccc(COc2c(F)c(F)cc(F)c2F)o1 | -32.8 | 1.84 µM [rising, single point] | 32.6 µM [falling, single point] |
| O=C(Nc1ccc2c(c1)OCCO2)c1ccc(Cl)c(S(=O)(=O)N2CCCCC2)c1 | -3.49 | 29.1 µM [rising, single point] |  |
| O=C(NCC1CCCO1)c1cccc(S(=O)(=O)NCc2ccccc2)c1 (configuration not stated) | -40.6 | 29.1 µM [falling, single point] | 29.1 µM [falling, single point] |
| Cc1ccc(Cl)cc1NC(=O)Cn1c(C)csc1=O | -0.518 | 9.2 µM [rising, partial curve] |  |
| CCOc1ccc(CN(C)CC(=O)Nc2cccc(S(=O)(=O)N(C)c3ccccc3)c2)cc1 | 20.6 |  | 0.517 µM [falling, single point] |

| SMILES | cell number change [%] | AC50 [1] | AC50 [2] |
| --- | --- | --- | --- |
| Nc1cccc(CCc2nc3cc4ccccc4cc3[nH]2)c1 | 1.42 | 0.0651 µM [rising, full curve, poor fit] |  |
| CN(C)S(=O)(=O)Oc1ccsc1C(=O)Nc1ccc(Cl)c(Cl)c1 | -33.3 | 16.4 µM [falling, partial curve] | 13 µM [falling, partial curve, poor fit] |
| Cc1cc(C(=O)NCCCN2CCCC2=O)no1 | -12.8 | 13 µM [falling, partial curve] | 0.82 µM [falling, partial curve] |
| CCOC(=O)c1ccc(Nc2cc(C)nc3nc(C)nn23)cc1 | -3.12 | 5.8 µM [rising, partial curve] |  |
| Cc1cccc(C)c1NS(=O)(=O)c1ccc(-c2cnc(C3CC3)o2)cc1 |  | 29.1 µM [falling, single point] |  |
| O=C(COc1ccc(S(=O)(=O)N2CCOCC2)cc1)Nc1cccc([N+](=O)[O-])c1 | -17.1 | 35.5 µM [falling, single point] |  |
| COc1ccc(CCNC2=NCCS2)cc1 | 2.5 | 0.13 µM [rising, full curve, poor fit] |  |
| CN(Cc1ccccc1)c1nc2c(c(=O)[nH]c(=O)n2C)n1CCCc1ccccc1 | -4.15 | 3.26 µM [rising, single point] | 2.59 µM [rising, partial curve] |
| COC(=O)c1ccc2c(=O)n(Cc3ccco3)c(SCC(=O)Nc3ccc(C)c(Cl)c3)nc2c1 |  | 0.58 µM [rising, single point] |  |
| COC(=O)C1=C(C)N(Cc2ccco2)C(=O)/C1=C\c1ccc(N(C)C)cc1 | 2.69 | 14.6 µM [rising, partial curve] |  |
| CCOC(=O)c1ccc(NC(=O)CC2C(=O)N(c3ccc(F)cc3)C(=O)N2CCC(C)C)cc1 (configuration not stated) |  | 0.731 µM [rising, single point] | 1.84 µM [rising, partial curve] |
| COc1ccc(NC(=O)CCSCCc2ccccn2)cc1OC | 15.7 |  |  |
| CC(Sc1nc(N)cc(N)n1)C(=O)Nc1ccc(N2CCOCC2)cc1 (configuration not stated) |  | 0.366 µM [falling, partial curve, poor fit] |  |
| COc1cc2c(cc1OC)CN(CC(=O)Nc1ccc(C)cc1)CC2 | -12 |  |  |
| COc1ccc(-c2nnc(SCC(=O)NCc3cccs3)n2C(C)C)cc1 | -35.2 |  |  |
| O=C(CN1CCN(C/C=C/c2ccccc2)CC1)NCc1ccccc1 |  | 1.16 µM [rising, partial curve, poor fit] |  |
| COc1ccc(CC(=O)OC(C)CN2CCCC2)cc1 (configuration not stated) | -7.6 | 2.06 µM [falling, partial curve, poor fit] |  |
| CN(c1cccnc1)c1ncnc2[nH]ncc12 | 25.1 |  | 2.59 µM [falling, single point] |
| COc1ccc(-c2nn(-c3ccccc3)cc2/C=C2/SC(=S)N(CCC(=O)O)C2=O)cc1 | 53.2 |  |  |
| Cc1cccc(C)c1Nc1c(-c2ccccn2)nc2ccccn12 | -19.5 |  |  |

From PubChem BioAssay AID2685 (National Center for Advancing Translational Sciences (NCATS), 2010)
